Measured values from patent US20210040201A1.
Results are given in words; binding and its absence hold for the method and conditions named. Some binding calls cover weakened binding; strength is not graded here.

The chains behind the UniProt entries cited, without tags or fusion partners. Where a name states a change or a piece, a line headed by the entry shows the natural chain unless it says otherwise.
UniProt Q495A1: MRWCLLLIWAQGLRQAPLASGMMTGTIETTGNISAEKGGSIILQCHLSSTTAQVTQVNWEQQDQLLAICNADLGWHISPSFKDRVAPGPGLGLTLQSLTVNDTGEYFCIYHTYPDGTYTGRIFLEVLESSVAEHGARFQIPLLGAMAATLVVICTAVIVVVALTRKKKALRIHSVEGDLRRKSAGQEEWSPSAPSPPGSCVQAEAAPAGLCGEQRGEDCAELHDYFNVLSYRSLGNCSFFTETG

Legend:
Human TIGIT-FC (human) = Human TIGIT-FC (human) (UniProt Q495A1); assay: BLI (ForteBio), Fab on human TIGIT-FC
[1] = target: Human TIGIT expressed on the surface of cells (human) (UniProt Q495A1); assay: flow cytometry, yeast-expressed antibody titrated on CHO cells stably expressing human TIGIT, PE-labelled anti-human secondary antibody, median fluorescence intensity
[2] = target: Human TIGIT expressed on the surface of cells (human) (UniProt Q495A1); assay: flow cytometry competition: yeast-expressed antibody titrated together with 50 nM human CD155-mouse IgG2a Fc on CHOS cells overexpressing human TIGIT; CD155 left on the cells detected with APC anti-mouse Fc
[3] = target: Human TIGIT expressed on the surface of cells (human) (UniProt Q495A1); assay: flow cytometry, yeast-expressed antibody on CHOS cells expressing human TIGIT

binding (Human TIGIT-FC (human)) | binding [1] | binding [2] | binding [3] | Binder
binds | – | – | – | ADI-30283 Fab (Fab, V domains shown) VH: EVQLLESGGGLVQPGGSLRLSCAASGFTFSPYGMSWVRQAPGKGLEWVSSISGSGGRTYYADSVKGRFTISRDNSKNTLYLQMNSLRAEDTAVYYCAKDPGTDSSGYYYIWRYWGQGTLVTVSS VL: EIVMTQSPATLSVSPGERATLSCRASQSVSSNLAWYQQKPGQAPRLLIYSASTRATGIPARFSGSGSGTEFTLTISSLQSEDFAVYYCQQYVPHPPFTFGGGTKVEIKR
binds | – | – | – | ADI-30288 Fab (Fab, V domains shown) VH: EVQLLESGGGLVQPGGSLRLSCAASGFTFGPYGMSWVRQAPGKGLEWVSAISGSGASTWHADSVKGRFTISRDNSKNTLYLQMNSLRAEDTAVYYCAKDPGTDSTGYYYIWRYWGQGTLVTVSS VL: EIVMTQSPATLSVSPGERATLSCRASQSVSSNLAWYQQKPGQAPRLLIYSASTRATGIPARFSGSGSGTEFTLTISSLQSEDFAVYYCQQYVPHPPFTFGGGTKVEIKR
binds | – | – | – | ADI-30286 Fab (Fab, V domains shown) VH: EVQLLESGGGLVQPGGSLRLSCAASGFTFGPYGMSWVRQAPGKGLEWVSAISGSGASTWYADSVKGRFTISRDNSKNTLYLQMNSLRAEDTAVYYCAKDPGTHYSGYYYIWRYWGQGTLVTVSS VL: EIVMTQSPATLSVSPGERATLSCRASQSVSSNLAWYQQKPGQAPRLLIYSASTRATGIPARFSGSGSGTEFTLTISSLQSEDFAVYYCQQYVPHPPFTFGGGTKVEIKR
– | binds | binds | – | ADI-27238 (antibody, human IgG4 S228P, kappa, F234A L235A, V domains shown) VH: QVQLVQSGAEVKKPGASVKVSCKASGYTFTSYYMSWVRQAPGQGLEWMGIINPSGGSTSYAQKFQGRVTMTRDTSTSTVYMELSSLRSEDTAVYYCARARYPSSWPYGMDVWGQGTTVTVSS VL: DIQMTQSPSSLSASVGDRVTITCRASQSINSYLNWYQQKPGKAPKLLIYAASSLQSGVPSRFSGSGSGTDFTLTISSLQPEDFATYYCQQSLLTPFTFGGGTKVEIKR
binds | – | – | – | ADI-30267 Fab (Fab, V domains shown) VH: QVQLVQSGAEVKKPGASVKVSCKASGYTFRSYYMSWVRQAPGQGLEWMGIIDPSGGRTSFAQKFQGRVTMTRDTSTSTVYMELSSLRSEDTAVYYCARARYPESWPYGMDVWGQGTTVTVSS VL: DIQMTQSPSSLSASVGDRVTITCRASQSINSYLNWYQQKPGKAPKLLIYAASSLQSGVPSRFSGSGSGTDFTLTISSLQPEDFATYYCQQSLLTPFTFGGGTKVEIKR
– | binds | binds | binds | ADI-30267 (antibody, human IgG4 S228P, kappa, F234A L235A, V domains shown) VH: QVQLVQSGAEVKKPGASVKVSCKASGYTFRSYYMSWVRQAPGQGLEWMGIIDPSGGRTSFAQKFQGRVTMTRDTSTSTVYMELSSLRSEDTAVYYCARARYPESWPYGMDVWGQGTTVTVSS VL: DIQMTQSPSSLSASVGDRVTITCRASQSINSYLNWYQQKPGKAPKLLIYAASSLQSGVPSRFSGSGSGTDFTLTISSLQPEDFATYYCQQSLLTPFTFGGGTKVEIKR
binds | – | – | – | ADI-30263 Fab (Fab, V domains shown) VH: QVQLVQSGAEVKKPGASVKVSCKASGYTFLSYYMNWVRQAPGQGLEWMGIIDPSGGRTSYAQKFQGRVTMTRDTSTSTVYMELSSLRSEDTAVYYCARARYPSSWPYGTDVWGQGTTVTVSS VL: DIQMTQSPSSLSASVGDRVTITCRASQSINSYLNWYQQKPGKAPKLLIYAASSLQSGVPSRFSGSGSGTDFTLTISSLQPEDFATYYCQQSLLTPFTFGGGTKVEIKR
binds | – | – | – | ADI-30268 Fab (Fab, V domains shown) VH: QVQLVQSGAEVKKPGASVKVSCKASGYTFGSYYMGWVRQAPGQGLEWMGIIDPSGGRTSYARKFQGRVTMTRDTSTSTVYMELSSLRSEDTAVYYCARARTPSSWPYGMDVWGQGTTVTVSS VL: DIQMTQSPSSLSASVGDRVTITCRASQSINSYLNWYQQKPGKAPKLLIYAASSLQSGVPSRFSGSGSGTDFTLTISSLQPEDFATYYCQQSLLTPFTFGGGTKVEIKR
– | binds | binds | – | ADI-27297 (antibody, human IgG4 S228P, kappa, F234A L235A, V domains shown) VH: QVQLVQSGAEVKKPGASVKVSCKASGYTFTSYYMHWVRQAPGQGLEWMGIINPSGGSTSYAQKFQGRVTMTRDTSTSTVYMELSSLRSEDTAVYYCARDHDIAAAGRLADYWGQGTLVTVSS VL: DIQMTQSPSSVSASVGDRVTITCRASQGISSWLAWYQQKPGKAPKLLISAASSLQSGVPSRFSGSGSGTDFTLTISSLQPEDFATYYCQQAVILPITFGGGTKVEIKR
– | binds | binds | binds | ADI-30272 (antibody, human IgG4 S228P, kappa, F234A L235A, V domains shown) VH: QVQLVQSGAEVKKPGASVKVSCKASGYTFTEYYMHWVRQAPGQGLEWMGIISPSAGSTSYAQKFQGRVTMTRDTSTSTVYMELSSLRSEDTAVYYCARDHDIAAAGRLADYWGQGTLVTVSS VL: DIQMTQSPSSVSASVGDRVTITCRASQGISSWLAWYQQKPGKAPKLLISAASSLQSGVPSRFSGSGSGTDFTLTISSLQPEDFATYYCQQAVILPITFGGGTKVEIKR
binds | – | – | – | ADI-30278 Fab (Fab, V domains shown) VH: QVQLVQSGAEVKKPGASVKVSCKASGYTFTEYYMHWVRQAPGQGLEWMGIISPSAGSTKYAQKFQGRVTMTRDTSTSTVYMELSSLRSEDTAVYYCARDHDIRLAGRLADYWGQGTLVTVSS VL: DIQMTQSPSSVSASVGDRVTITCRASQGISSWLAWYQQKPGKAPKLLISAASSLQSGVPSRFSGSGSGTDFTLTISSLQPEDFATYYCQQAVILPITFGGGTKVEIKR
binds | – | – | – | ADI-30272 Fab (Fab, V domains shown) VH: QVQLVQSGAEVKKPGASVKVSCKASGYTFTEYYMHWVRQAPGQGLEWMGIISPSAGSTSYAQKFQGRVTMTRDTSTSTVYMELSSLRSEDTAVYYCARDHDIAAAGRLADYWGQGTLVTVSS VL: DIQMTQSPSSVSASVGDRVTITCRASQGISSWLAWYQQKPGKAPKLLISAASSLQSGVPSRFSGSGSGTDFTLTISSLQPEDFATYYCQQAVILPITFGGGTKVEIKR
